Compound in this experiment: Cc1nc(Nc2ncc(C(=O)Nc3c(C)cccc3Cl)s2)cc(N2CCN(CCO)CC2)n1 [dasatinib]
In words: log2 fold change of tryptic peptide abundance, ligand vs vehicle (limited proteolysis) (log2 ratio); higher = more trypsin-susceptible (destabilized). The settings on record: ligand concentration: 5 uM; sample: K562 cleared lysate.

Chains of the proteins cited; added tags and fusions are not shown. Lines headed by an entry give the natural chain unless they say otherwise; changes in a name come on top.
UniProt Q9HBG6: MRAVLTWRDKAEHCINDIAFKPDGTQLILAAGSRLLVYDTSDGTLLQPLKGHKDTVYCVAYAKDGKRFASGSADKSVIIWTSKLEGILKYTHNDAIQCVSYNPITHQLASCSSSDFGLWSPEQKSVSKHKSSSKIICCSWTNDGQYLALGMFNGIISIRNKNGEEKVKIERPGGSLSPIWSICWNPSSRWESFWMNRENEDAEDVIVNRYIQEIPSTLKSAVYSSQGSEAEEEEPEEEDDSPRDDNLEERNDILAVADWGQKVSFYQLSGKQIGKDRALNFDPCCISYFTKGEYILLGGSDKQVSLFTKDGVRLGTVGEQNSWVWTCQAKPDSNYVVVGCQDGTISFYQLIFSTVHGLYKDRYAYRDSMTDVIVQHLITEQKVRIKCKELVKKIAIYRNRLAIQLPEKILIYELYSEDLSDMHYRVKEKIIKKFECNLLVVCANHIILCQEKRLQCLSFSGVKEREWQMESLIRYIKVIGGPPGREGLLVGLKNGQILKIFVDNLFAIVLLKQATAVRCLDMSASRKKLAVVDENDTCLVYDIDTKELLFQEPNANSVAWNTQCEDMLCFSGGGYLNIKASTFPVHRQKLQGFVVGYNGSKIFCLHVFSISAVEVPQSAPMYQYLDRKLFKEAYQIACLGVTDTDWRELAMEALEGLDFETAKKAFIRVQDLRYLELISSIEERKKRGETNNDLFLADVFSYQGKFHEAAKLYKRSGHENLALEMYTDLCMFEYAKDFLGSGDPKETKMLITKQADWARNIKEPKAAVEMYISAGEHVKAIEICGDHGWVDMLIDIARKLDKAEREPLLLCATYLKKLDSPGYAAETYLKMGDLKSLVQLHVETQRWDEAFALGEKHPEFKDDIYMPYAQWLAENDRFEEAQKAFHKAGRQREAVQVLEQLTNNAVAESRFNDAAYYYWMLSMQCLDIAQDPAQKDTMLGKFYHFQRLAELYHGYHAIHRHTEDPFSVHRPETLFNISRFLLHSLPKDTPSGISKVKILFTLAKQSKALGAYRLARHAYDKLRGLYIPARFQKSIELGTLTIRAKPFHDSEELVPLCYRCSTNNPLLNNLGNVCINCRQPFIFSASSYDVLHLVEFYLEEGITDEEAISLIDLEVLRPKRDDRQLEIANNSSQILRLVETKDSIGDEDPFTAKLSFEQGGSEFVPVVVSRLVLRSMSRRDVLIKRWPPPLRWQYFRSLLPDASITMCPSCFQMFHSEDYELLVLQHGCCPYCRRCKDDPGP
UniProt Q9H7C9: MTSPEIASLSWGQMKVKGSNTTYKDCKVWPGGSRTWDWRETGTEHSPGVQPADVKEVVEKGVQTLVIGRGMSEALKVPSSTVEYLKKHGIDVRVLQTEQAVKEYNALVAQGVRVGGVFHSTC
UniProt Q9H3R5: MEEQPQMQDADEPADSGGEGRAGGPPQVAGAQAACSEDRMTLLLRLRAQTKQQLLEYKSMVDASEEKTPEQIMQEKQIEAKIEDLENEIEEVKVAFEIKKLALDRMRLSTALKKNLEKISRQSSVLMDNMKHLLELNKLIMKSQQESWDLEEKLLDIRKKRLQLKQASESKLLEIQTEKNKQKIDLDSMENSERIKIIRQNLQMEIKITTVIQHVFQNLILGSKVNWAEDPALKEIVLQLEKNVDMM
UniProt Q9HCI6: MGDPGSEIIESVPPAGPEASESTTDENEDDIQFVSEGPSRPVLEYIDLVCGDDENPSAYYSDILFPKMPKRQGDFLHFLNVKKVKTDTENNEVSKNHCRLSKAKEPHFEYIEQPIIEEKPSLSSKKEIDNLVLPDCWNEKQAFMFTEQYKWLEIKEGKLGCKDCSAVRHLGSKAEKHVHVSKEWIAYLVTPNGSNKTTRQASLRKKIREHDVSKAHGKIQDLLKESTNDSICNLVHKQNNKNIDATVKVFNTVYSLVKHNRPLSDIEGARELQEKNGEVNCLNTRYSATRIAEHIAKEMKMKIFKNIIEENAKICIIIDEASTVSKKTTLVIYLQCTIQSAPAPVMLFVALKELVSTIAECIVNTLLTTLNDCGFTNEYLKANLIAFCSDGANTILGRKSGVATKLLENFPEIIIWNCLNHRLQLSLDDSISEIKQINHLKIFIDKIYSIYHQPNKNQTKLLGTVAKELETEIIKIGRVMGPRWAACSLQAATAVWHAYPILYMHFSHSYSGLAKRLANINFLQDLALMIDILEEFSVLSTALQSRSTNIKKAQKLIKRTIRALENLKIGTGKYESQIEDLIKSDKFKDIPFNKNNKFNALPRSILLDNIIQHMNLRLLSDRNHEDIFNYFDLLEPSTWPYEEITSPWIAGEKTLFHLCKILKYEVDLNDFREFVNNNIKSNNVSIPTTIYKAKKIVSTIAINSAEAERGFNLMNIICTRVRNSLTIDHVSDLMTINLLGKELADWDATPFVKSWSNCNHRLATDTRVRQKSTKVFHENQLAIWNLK
UniProt Q9H9B1: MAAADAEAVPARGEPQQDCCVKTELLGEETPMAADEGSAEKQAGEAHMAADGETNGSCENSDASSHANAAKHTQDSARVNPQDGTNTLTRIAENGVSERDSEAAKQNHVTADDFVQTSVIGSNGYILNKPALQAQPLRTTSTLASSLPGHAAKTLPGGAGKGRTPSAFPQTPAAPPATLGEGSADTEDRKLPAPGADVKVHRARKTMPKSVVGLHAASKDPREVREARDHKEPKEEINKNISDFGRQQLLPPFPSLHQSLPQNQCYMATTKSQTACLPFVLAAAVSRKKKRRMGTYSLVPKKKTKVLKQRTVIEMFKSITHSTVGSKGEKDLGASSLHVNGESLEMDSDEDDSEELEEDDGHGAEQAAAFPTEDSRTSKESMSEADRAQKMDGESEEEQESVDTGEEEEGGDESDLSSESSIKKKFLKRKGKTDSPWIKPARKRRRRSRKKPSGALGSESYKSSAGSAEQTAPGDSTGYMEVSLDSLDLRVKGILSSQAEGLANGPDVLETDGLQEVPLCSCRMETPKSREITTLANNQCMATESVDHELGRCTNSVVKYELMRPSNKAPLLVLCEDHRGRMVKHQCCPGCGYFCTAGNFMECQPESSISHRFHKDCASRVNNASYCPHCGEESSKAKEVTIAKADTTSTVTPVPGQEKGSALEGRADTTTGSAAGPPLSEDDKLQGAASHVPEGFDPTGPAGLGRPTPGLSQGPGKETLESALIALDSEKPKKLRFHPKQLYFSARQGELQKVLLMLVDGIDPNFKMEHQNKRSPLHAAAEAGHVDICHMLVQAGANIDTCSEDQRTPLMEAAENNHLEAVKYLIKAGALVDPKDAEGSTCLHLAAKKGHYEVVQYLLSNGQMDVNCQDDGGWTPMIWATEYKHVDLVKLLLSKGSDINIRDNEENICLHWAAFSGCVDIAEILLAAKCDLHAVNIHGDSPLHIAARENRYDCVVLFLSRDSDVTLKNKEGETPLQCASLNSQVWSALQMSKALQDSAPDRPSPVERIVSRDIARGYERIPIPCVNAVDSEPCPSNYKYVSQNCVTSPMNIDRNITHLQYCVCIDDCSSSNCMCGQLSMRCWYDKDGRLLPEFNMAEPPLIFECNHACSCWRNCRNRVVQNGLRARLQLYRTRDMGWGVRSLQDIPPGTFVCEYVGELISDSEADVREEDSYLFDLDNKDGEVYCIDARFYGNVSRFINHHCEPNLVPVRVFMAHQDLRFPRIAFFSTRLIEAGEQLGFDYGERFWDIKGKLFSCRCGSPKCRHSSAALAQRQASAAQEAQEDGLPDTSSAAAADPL
UniProt Q9H6S1, whole entry: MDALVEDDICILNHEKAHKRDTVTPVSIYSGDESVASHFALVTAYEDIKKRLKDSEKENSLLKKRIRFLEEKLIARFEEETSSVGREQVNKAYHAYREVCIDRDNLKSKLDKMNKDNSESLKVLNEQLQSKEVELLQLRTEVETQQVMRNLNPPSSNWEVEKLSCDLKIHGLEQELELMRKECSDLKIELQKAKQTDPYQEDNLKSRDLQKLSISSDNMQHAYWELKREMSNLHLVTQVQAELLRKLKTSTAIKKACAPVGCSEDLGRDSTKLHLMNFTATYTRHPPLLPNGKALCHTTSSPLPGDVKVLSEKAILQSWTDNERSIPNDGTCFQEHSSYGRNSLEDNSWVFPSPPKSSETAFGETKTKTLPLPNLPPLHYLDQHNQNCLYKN
UniProt Q9HB75: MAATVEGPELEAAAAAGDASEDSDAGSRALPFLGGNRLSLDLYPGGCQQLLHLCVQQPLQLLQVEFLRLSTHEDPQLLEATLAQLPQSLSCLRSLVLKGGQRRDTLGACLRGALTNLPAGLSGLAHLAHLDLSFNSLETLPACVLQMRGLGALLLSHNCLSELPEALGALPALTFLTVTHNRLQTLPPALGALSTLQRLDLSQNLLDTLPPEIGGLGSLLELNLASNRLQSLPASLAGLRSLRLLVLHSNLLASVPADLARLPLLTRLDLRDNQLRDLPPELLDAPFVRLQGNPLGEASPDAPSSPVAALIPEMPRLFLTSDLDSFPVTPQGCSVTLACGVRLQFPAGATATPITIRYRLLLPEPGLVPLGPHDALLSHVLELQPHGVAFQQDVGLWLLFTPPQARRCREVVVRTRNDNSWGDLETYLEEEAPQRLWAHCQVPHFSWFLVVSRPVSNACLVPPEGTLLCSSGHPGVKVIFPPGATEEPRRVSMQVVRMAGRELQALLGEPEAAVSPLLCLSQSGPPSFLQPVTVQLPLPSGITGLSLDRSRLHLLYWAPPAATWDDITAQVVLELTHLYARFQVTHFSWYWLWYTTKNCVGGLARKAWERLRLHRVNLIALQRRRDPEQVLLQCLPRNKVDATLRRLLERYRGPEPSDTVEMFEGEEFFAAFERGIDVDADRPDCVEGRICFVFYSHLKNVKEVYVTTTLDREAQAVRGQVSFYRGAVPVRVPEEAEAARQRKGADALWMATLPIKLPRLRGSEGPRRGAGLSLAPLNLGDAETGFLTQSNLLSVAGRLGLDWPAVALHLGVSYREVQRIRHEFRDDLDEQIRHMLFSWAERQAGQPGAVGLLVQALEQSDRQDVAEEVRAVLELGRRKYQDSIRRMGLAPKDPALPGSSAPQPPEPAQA
UniProt Q9H3F6: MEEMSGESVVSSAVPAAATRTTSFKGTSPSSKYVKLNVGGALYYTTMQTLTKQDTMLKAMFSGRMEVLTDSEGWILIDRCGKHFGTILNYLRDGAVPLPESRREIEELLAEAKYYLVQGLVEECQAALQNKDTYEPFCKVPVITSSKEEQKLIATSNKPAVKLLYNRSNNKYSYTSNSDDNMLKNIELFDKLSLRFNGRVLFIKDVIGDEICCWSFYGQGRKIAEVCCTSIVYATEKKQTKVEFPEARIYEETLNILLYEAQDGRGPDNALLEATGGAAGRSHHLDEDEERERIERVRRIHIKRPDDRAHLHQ
UniProt Q9H9L3: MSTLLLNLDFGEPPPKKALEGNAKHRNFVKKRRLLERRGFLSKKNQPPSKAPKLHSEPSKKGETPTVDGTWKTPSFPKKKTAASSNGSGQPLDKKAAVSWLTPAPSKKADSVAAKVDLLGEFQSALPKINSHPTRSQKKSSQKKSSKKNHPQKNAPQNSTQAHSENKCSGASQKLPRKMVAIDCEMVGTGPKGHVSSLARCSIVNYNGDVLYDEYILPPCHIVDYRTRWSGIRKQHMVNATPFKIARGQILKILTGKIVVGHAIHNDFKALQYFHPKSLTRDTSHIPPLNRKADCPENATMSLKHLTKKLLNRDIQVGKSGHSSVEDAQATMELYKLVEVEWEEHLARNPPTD
UniProt Q9HC07: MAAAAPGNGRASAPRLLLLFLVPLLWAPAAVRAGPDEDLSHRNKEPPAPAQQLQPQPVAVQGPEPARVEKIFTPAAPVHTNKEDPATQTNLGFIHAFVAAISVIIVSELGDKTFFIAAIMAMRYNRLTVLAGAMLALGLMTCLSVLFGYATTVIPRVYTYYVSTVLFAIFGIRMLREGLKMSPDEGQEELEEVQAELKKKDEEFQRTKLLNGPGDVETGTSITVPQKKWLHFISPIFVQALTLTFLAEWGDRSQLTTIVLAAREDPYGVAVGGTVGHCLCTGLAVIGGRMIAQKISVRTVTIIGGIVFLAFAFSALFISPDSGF
UniProt Q9H900: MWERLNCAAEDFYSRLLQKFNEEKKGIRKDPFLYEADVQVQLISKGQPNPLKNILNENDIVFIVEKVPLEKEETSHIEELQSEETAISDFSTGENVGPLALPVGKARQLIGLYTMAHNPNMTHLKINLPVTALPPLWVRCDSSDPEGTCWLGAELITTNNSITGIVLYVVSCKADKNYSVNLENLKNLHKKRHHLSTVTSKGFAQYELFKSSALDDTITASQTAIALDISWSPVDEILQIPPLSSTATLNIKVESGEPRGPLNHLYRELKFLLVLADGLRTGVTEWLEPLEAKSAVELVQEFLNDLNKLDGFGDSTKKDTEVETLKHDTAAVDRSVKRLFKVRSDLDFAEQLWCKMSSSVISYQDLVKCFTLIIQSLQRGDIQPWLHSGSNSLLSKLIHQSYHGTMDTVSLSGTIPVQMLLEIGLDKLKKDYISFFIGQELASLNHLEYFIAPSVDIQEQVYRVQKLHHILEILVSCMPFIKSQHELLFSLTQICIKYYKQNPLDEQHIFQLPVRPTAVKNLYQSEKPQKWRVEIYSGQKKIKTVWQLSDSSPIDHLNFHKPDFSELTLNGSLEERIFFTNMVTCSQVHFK

The other results are listed elsewhere or left out. Most values lie at the level of the controls, where differences are scatter.

Consider “PATZ1 (peptide sequence: KANLLDSMFGSPGGLR, peptide start residue: 272) (UniProt Q9HBE1)”, for which the log2 fold change was -0.0368. To “UniProt Q9HAU4 (peptide sequence: THLHTPPDLPEGYEQR, peptide start residue: 245)” belongs -0.308. Then “IFT122 (peptide sequence: DSIGDEDPFTAK, peptide start residue: 1142) (UniProt Q9HBG6)”, with -0.287; and “UniProt Q9H7C9 (peptide sequence: VLQTEQAVK, peptide start residue: 94)”, with 0.131; and “UniProt Q9H7H0 (peptide sequence: FSMVILAR, peptide start residue: 369)”, with 0.253. On to “UniProt Q9H668 (peptide sequence: GCHFLHILACAR, peptide start residue: 321)”, for which the log2 fold change was -0.167. As to “ALG9 (peptide sequence: GSGASSGDTAPAADKLR, peptide start residue: 12) (UniProt Q9H6U8)”, the log2 fold change was -0.326. With “SEC61A2 (peptide sequence: EQQMVMR, peptide start residue: 396) (UniProt Q9H9S3)”, the log2 fold change was found to be 0.0418. Then “BCAS3 (peptide sequence: DVVGSGTELQR, peptide start residue: 873) (UniProt Q9H6U6)”, with 0.25. Then “RABEP2 (peptide sequence: AQLPDLLSEQR, peptide start residue: 498) (UniProt Q9H5N1)”, with 0.227. Then “CENPH (peptide sequence: QSSVLMDNMK, peptide start residue: 122) (UniProt Q9H3R5)”, with 0.0771; and “UniProt Q9H3P2 (peptide sequence: YKPMTNVS, peptide start residue: 521)”, with 0.159. On to “EPB41L1 (peptide sequence: LQHPDMLVTK, peptide start residue: 851) (UniProt Q9H4G0)”, for which the log2 fold change was 0.32. Then “OSBPL3 (peptide sequence: NFVFWQDVR, peptide start residue: 644) (UniProt Q9H4L5)”, with -0.274; and “TDRD3 (peptide sequence: IFYNSGPK, peptide start residue: 525) (UniProt Q9H7E2)”, with -0.52. To “NMRAL1 (peptide sequence: MTPEDYEKLGFPGAR, peptide start residue: 241) (UniProt Q9HBL8)” belongs 0.319; to “PNN (peptide sequence: TLQEQLEK, peptide start residue: 7) (UniProt Q9H307)”, -0.142; to “ACAD9 (peptide sequence: FSMGSVVAGLLKR, peptide start residue: 305) (UniProt Q9H845)”, -0.528. For “UBE2Z (peptide sequence: LHLQGQTMQDPFGEKR, peptide start residue: 290) (UniProt Q9H832)”, the log2 fold change came out at 0.558. Take “PTPN23 (peptide sequence: DFYADLESK, peptide start residue: 677) (UniProt Q9H3S7)”: the log2 fold change was 0.126.

Take “MSL2 (peptide sequence: GPTLGASAPVTVKR, peptide start residue: 363) (UniProt Q9HCI7)”: the log2 fold change was -0.0804. With “RAVER2 (peptide sequence: NQTSLLGEPPKEIR, peptide start residue: 565) (UniProt Q9HCJ3)”, the log2 fold change is -0.249. Then “KIAA1586 (peptide sequence: VFHENQLAIWNLK, peptide start residue: 775) (UniProt Q9HCI6)”, with -0.503; and “SENP3 (peptide sequence: WSQLGTSQR, peptide start residue: 102) (UniProt Q9H4L4)”, with -0.63; and “UniProt Q9H9C1 (peptide sequence: QQLLAYR, peptide start residue: 461)”, with -0.479. As to “EHMT1 (peptide sequence: IAENGVSER, peptide start residue: 91) (UniProt Q9H9B1)”, the log2 fold change turned out to be 0.21. Then “ACTR8 (peptide sequence: KTAISLFEGK, peptide start residue: 498) (UniProt Q9H981)”, with 0.631. To “TUBB1 (peptide sequence: EIVHIQIGQCGNQIGAK, peptide start residue: 3) (UniProt Q9H4B7)” belongs 0.27; to “AZI2 (peptide sequence: ECSDLKIELQK, peptide start residue: 182) (UniProt Q9H6S1)”, -0.502; to “IPPK (peptide sequence: AKDNAVMSTR, peptide start residue: 468) (UniProt Q9H8X2)”, -0.529. Then “PIDD1 (peptide sequence: VNLIALQR, peptide start residue: 616) (UniProt Q9HB75)”, with 0.178. Regarding “KCTD10 (peptide sequence: SHHLDEDEERER, peptide start residue: 282) (UniProt Q9H3F6)”, the log2 fold change was -0.159.

For the target “CACYBP (peptide sequence: WDYLTQVEKECK, peptide start residue: 163) (UniProt Q9HB71)”, the log2 fold change is -0.13. On to “ISG20L2 (peptide sequence: NAPQNSTQAHSENK, peptide start residue: 154) (UniProt Q9H9L3)”, for which the log2 fold change stood at 0.288. For “PRKRIP1 (peptide sequence: MSEWAPRPPPEFVR, peptide start residue: 52) (UniProt Q9H875)”, the log2 fold change came out at 0.135. As to “UniProt Q9H974 (peptide sequence: SLLFLDNCLR, peptide start residue: 167)”, the log2 fold change is -0.349. To “TMEM165 (peptide sequence: KKDEEFQR, peptide start residue: 199) (UniProt Q9HC07)” belongs 0.136. As for “ZWILCH (peptide sequence: DTEVETLK, peptide start residue: 319) (UniProt Q9H900)”, the log2 fold change was -0.158.
